No constants are given. Whether binding was seen depends on the method and setting.
Target: PARP2-QFRD (human) (UniProt Q9UGN5)
Assay: SEC-MALS; Superdex 200 Increase 10/300; HEPES 50 mM pH 7.5, NaCl 150 mM, MgCl2 1 mM, EDTA 0.1 mM, TCEP 0.1 mM; PARP2-QFRD at 30 μM, Nuc165 at 4.61 μM, each alone; both purified

binding: no binding (tested: 30 μM)
Substance: PARP2-QFRD (from UniProt Q9UGN5-2 1-570) (enzyme)

— paper PMC7608914
